Values of other authors as cited in patent US8765750B2, “Piperazine compound having a PGDS inhibitory effect” (Taiho Pharmaceutical Co., Ltd., priority 2010, dated 2014).
At least one compound was matched to its structure with a doubt left.

Tested on: metabolic syndrome
Details: mice; as disclosed in Patent Literature 3; cited from earlier work

For `O=C(Nc1ccc(C(F)(F)F)cc1)N1CCN(C(=O)c2cccc(F)n2)CC1` [Reference Example 17, 4-(6-fluoropyridine-2-carbonyl)-piperazine-1-carboxylic acid-(4-trifluoromethylphenyl)-amide, reference compound], the “effect against metabolic syndrome” value is listed as “effective against metabolic syndrome in mice”.
